Measured values from article PMC11119796.

Target: T1, ISLR (construct not stated) (UniProt Q6GU68)
T1 sequence: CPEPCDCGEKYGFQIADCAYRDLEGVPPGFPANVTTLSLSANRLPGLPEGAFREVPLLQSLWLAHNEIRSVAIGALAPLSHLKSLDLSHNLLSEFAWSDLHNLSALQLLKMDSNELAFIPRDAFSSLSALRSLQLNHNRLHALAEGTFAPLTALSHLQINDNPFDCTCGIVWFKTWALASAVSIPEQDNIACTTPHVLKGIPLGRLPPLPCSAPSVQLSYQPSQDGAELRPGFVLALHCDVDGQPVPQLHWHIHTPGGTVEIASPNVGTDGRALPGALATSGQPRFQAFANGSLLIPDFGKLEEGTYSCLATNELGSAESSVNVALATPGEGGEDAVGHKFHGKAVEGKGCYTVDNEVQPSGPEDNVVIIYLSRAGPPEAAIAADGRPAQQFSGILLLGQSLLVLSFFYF
Test: co-IP; co-IP of ISLR to identify interacting metabolic enzymes; cells, construct and way of identification not stated

- binding: binds
Substance: Pyruvate kinase (enzyme)

Results are given in words; binding and its absence hold for the method and conditions named. Binding seen in cells or lysates may run through a third protein. Binding can be weak; no strength is given.
